The target of this assay is TCL (UniProt Q9H4E5). The assay is described as follows: stopped-flow fluorimetry; association (kobs) at one concentration: 2 µM GDI mixed with 0.2 µM mdGDP-bound RHO GTPase; 25 °C, 30 mM Tris/HCl pH 7.5, 10 mM K2HPO4/KH2PO4 pH 7.5, 5 mM MgCl2, 3 mM DTT; both purified.

Protein sequences, listed by entry. Tags and fused reporters are not part of them.
UniProt Q9H4E5: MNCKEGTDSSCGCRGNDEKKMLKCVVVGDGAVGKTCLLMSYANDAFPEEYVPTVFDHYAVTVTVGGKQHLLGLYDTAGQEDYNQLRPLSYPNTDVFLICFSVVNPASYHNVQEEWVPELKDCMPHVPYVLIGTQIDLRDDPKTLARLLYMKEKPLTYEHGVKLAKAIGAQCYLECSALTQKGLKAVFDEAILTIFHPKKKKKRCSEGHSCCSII

No constants are given. Whether binding was seen depends on the method and setting.

B1: GDI3ΔN20 (domain or fragment, UniProt Q99819 21-225)
chain: LCARVLLADKEGGPPAVDEVLDEAVPEYRAPGRKSLLEIRQLDPDDRSLAKYKRVLLGPLPPAVDPSLPNVQVTRLTLLSEQAPGPVVMDLTGDLAVLKDQVFVLKEGVDYRVKISFKVHREIVSGLKCLHHTYRRGLRVDKTVYMVGSYGPSAQEYEFVTPVEEAPRGALVRGPYLVVSLFTDDDRTHHLSWEWGLCICQDWKD
Consider B1, for which the binding result is reported as “no binding (tested: 2 µM GDI, 0.2 µM mdGDP-bound GTPase)”.

B2: GDI2 (protein, UniProt P52566 1-201)
chain: MTEKAPEPHVEEDDDDELDSKLNYKPPPQKSLKELQEMDKDDESLIKYKKTLLGDGPVVTDPKAPNVVVTRLTLVCESAPGPITMDLTGDLEALKKETIVLKEGSEYRVKIHFKVNRDIVSGLKYVQHTYRTGVKVDKATFMVGSYGPRPEEYEFLTPVEEAPKGMLARGTYHNKSFFTDDDKQDHLSWEWNLSIKKEWTE
With B2, the binding entry was “no binding (tested: 2 µM GDI, 0.2 µM mdGDP-bound GTPase)”.
